Experimental data published in the supplement of paper PMC8256030.
“And” between values parts separate entries of the source, which are not always exact repeats. Identical values can stand only once. The list shows a part of the results. Repeats in this data set agree poorly, so a single value says little.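 HEK293T cells were given each compound shortly before transfection with a reporter in which red mCherry is followed by the SARS-CoV-2 frameshift element and then GFP in the −1 frame, so GFP appears only after frameshifting.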

Tested on: SARS-CoV-2 -1 PRF reporter mCherry-FSE-GFP(-1)
Assay: mCherry (red) intensity as percent of control; higher = higher upstream reporter expression
Conditions: 10 µM; 24 h; HEK293T

Going from Cc1ccc(S(=O)(=O)NC(=O)N[C@H]2[C@H]3CC[C@@](C)([C@H]2O)C3(C)C)cc1 [glibornuride] to COc1ccc2c(c1)C(=O)N(CCc1ccc(S(=O)(=O)NC(=O)NC3CCCCC3)cc1)C(=O)C2(C)C [Gliquidone], the mCherry falls from 103% to 89.4%.

Compared with CCCCC(CC)CN1CN(CC(CC)CCCC)CC(C)(N)C1 (stereo unspecified) [hexetidine], C[C@H](CCC(=O)NCCS(=O)(=O)O)[C@H]1CC[C@H]2[C@@H]3[C@@H](O)C[C@@H]4C[C@H](O)CC[C@]4(C)[C@H]3CC[C@]12C [Tauroursodeoxycholic acid] is lower in mCherry: 132% for the first, 80.3% for the second.

Compared with COc1cc(C=CC(=O)N2CCCCCCC2)cc(OC)c1OC, COc1ccc2cc([C@H](C)C(=O)O)ccc2c1 [naproxen] is lower in mCherry: 105% for the first, 104% for the second.

Going from Cc1ccnc(NC(=O)C(C)c2cccc(C(=O)c3ccccc3)c2)c1 (stereo unspecified) [piketoprofen] to CN1C(C(=O)Nc2ccccn2)=C(O)c2ccccc2S1(=O)=O [piroxicam], the mCherry falls from 102% to 98.6%.

Going from NC(=O)Oc1ccc(Cc2ccccc2)cc1 [diphenan] to O=C(O)Cc1ccc2c(c1)C(=O)c1ccccc1CO2 [isoxepac], the mCherry rises from 95.3% to 103%.

Going from CC[C@H]1OC(=O)[C@H](C)C(=O)[C@H](C)[C@@H](O[C@@H]2O[C@H](C)C[C@H](N(C)C)[C@H]2O)[C@](C)(OC)C[C@@H](C)C(=O)[C@H](C)[C@H]2N(CCCCn3cnc(-c4cccnc4)c3)C(=O)O[C@]12C to CN(C)[C@@H]1C(=O)C(C(=O)NCNCCCC[C@H](N)C(=O)O)=C(O)[C@@]2(O)C(=O)C3=C(O)c4c(O)cccc4[C@@](C)(O)[C@H]3C[C@@H]12 [Lymecycline], the mCherry falls from 119% to 87.6%.

Going from C[C@@H](O)[C@H]1C(=O)N2C(C(=O)O)=C(S[C@@H]3CN[C@H](CNS(N)(=O)=O)C3)[C@H](C)[C@H]12 [doripenem] to CC(=O)[C@@]1(O)CC[C@H]2[C@@H]3C=C(Cl)C4=CC(=O)[C@@H]5C[C@@H]5[C@]4(C)[C@H]3CC[C@@]21C [cyproterone], the mCherry falls from 97.1% to 81.5%.

Going from NCc1c[nH]c(=S)n1[C@H]1CCc2c(F)cc(F)cc2C1 [nepicastat] to CC1CCCCN1CCCOC(=O)c1ccccc1 (stereo unspecified) [piperocaine], the mCherry falls from 104% to 82.4%.

Going from CCN(CC)C(C)CC(=O)Nc1ccccc1 (stereo unspecified) [octacaine] to CC(C)C(=O)c1c(C(C)C)nn2ccccc12 [ibudilast], the mCherry rises from 71.4% to 92.1%.

First: CC(=O)O[C@]1(C(C)=O)CC[C@H]2[C@@H]3C=C(C)C4=CC(=O)CC[C@]4(C)[C@H]3CC[C@@]21C
Second: CCC(=O)O[C@]1(C(=O)CCl)[C@@H](C)C[C@H]2[C@@H]3C[C@H](F)C4=CC(=O)C=C[C@]4(C)[C@@]3(F)[C@@H](O)C[C@@]21C [Ultravate]
The mCherry of the first is higher: 118% for the first, 106% for the second.

Compared with O=C1NCC2(CCN(CCc3ccccc3)CC2)O1 [Fenspiride], O=C(OCCN1CCN(c2cccc(C(F)(F)F)c2)CC1)c1ccccc1Nc1ccnc2cc(C(F)(F)F)ccc12 [antrafenine] is lower in mCherry: 93.6% for the first, 91.7% for the second.

Going from CC(C)(C)CC(C)(C)c1ccc(O)c(Cc2ccc(Cl)cc2Cl)c1 [clofoctol] to Cc1cc(Cc2cnc(N)nc2N)c2cccnc2c1N(C)C [baquiloprim], the mCherry falls from 98.3% to 78.4%.

Going from O=S(=O)(O)Oc1ccc(C(c2ccc(OS(=O)(=O)O)cc2)c2ccccn2)cc1 [picosulfate] to CC(C)Nc1ncccn1 [isaxonine], the mCherry rises from 71.6% to 82.7%.

First: NC[C@H]1O[C@H](O[C@H]2[C@H](O[C@@H]3O[C@H](CO)[C@@H](O)[C@H]3O)[C@@H](O)[C@H](N)C[C@@H]2N)[C@H](N)[C@@H](O)[C@@H]1O
Second: O=c1[nH]c(=O)n([C@H]2C[C@H](O)[C@@H](CO)O2)cc1Br [broxuridine]
The mCherry of the first is higher: 108% for the first, 99.1% for the second.

In the case of CC(C)C[C@H](NC(=O)[C@@H](COC(C)(C)C)NC(=O)[C@H](Cc1ccc(O)cc1)NC(=O)[C@H](CO)NC(=O)[C@H](Cc1c[nH]c2ccccc12)NC(=O)[C@H](Cc1cnc[nH]1)NC(=O)[C@@H]1CCC(=O)N1)C(=O)N[C@@H](CCCNC(=N)N)C(=O)N1CCC[C@H]1C(=O)NNC(N)=O [Goserelin], the mCherry was 78.6% and 91.7%.
CCc1ccc(CCOc2ccc(CC3SC(=O)NC3=O)cc2)nc1 (stereo unspecified) [pioglitazone] was tested, and the mCherry was 94.7% and 90.1%.
In the case of CC(C)(C)NCC(O)c1ccc(O)c(CO)c1 (stereo unspecified) [salbutamol], the mCherry was 87.6% and 90.5%.
